According to article PMC8993510:
Results are given in words; binding and its absence hold for the method and conditions named. For some assays here: Binding calls can cover weak binding; strength is not graded here. For some assays here: Binding seen in cells or lysates may run through a third protein. For some assays here: Where a sequence is shown, tags or fusion partners need not be part of it. Values belong to the binder of their own block, whether it stands above or below them.

Legend:
[1] = molecular target: CE-OsELF4b (rice); assay: split reporter; BiFC with pSPYNE and pSPYCE fusions, equal concentration mixtures co-transformed into rice protoplasts; fluorescence imaged by confocal microscopy
[2] = molecular target: CE-OsELF4c (rice); assay: as above
[3] = molecular target: CE-OsLUX (rice); assay: as above
[4] = molecular target: CE-OsELF4a (rice); assay: as above
[5] = molecular target: OsELF4a-GFP (rice); assay: co-IP; GFP and MYC fusions transiently co-expressed in rice protoplasts for 16 h; lysate on GFP-Nanoab-Agarose, washed four times; western blot with anti-Myc or anti-GFP
[6] = molecular target: OsLUX-GFP (rice); assay: as above
[7] = molecular target: OsLUX in pGBKT7 (rice (Nipponbare, japonica)); assay: two-hybrid; yeast two-hybrid, pGBKT7 baits and pGADT7 preys co-transformed into Y187; growth on selective SD media (-Trp-Leu-His-Ade) with X-alpha-Gal
[8] = molecular target: OsELF4a in pGBKT7 (rice (Nipponbare, japonica)); assay: as above

binding [1]: no binding
binding [2]: no binding
binding [3]: binds
binding [4]: binds
B1: NE-OsELF3a (protein, UniProt Q9SNQ6 1-760)
chain: MATRGGGGGGGGKEAKGKVMGPLFPRLHVNDAAKGGGPRAPPRNKMALYEQFTVPSHRFSGGGGGGGVGGSPAHSTSAASQSQSQSQVYGRDSSLFQPFNVPSNRPGHSTEKINSDKINKKISGSRKELGMLSSQTKGMDIYASRSTAEAPQRRAENTIKSSSGKRLADDDEFMVPSVFNSRFPQYSTQENAGVQDQSTPLVAANPHKSPSTVSKSSTKCYNTVSKKLERIHVSDVKSRTPLKDKEMEAAQTSKNVEVEKSSSFHASKDMFESRHAKVYPKMDKTGIINDSDEPHGGNSGHQATSRNGGSMKFQNPPMRRNEISSNPSSENTDRHYNLPQGGIEETGTKRKRLLEQHDAEKSDDVSRLLEQHDAENIDDVSDSSVECITGWEISPDKIVGAIGTKHFWKARRAIMNQQRVFAVQVFELHKLVKVQKLIAASPHVLIESDPCLGNALLGSKNKLVEENLKAQPLLVATIDDVEPSLQQPEVSKENTEDSPPSPHDTGLGSGQRDQAATNGVSKSNRRATPVASDNKQNNWGVQLQPPQNQWLVPVMSPLEGLVYKPYSGPCPPAGSILAPFYANCTPLSLPSTAGDFMNSAYGVPMPHQPQHMGAPGPPSMPMNYFPPFSIPVMNPTAPAPVVEQGRHPSMPQPYGNFEQQSWISCNMSHPSGIWRFHASRDSEAQASSASSPFDRFQCSGSGPVSAFPTVSAQNNQPQPSYSSRDNQTNVIKVVPHNSRTASESAARIFRSIQMERQRDD

binding [5]: binds
binding [6]: binds
B2: OsELF3a-MYC (protein, UniProt Q9SNQ6 1-760)
chain: B1 chain

binding [7]: binds
binding [8]: binds
B3: OsELF3a in pGADT7 (protein, UniProt Q9SNQ6 1-760)
chain: B1 chain
